One test concerns the target Flag-NOTCH1 (human) (UniProt P46531). Put plainly: co-IP; THLE2 cells transfected with Flag-NOTCH1 and HA-KEAP1, under CCl4 exposure; IP buffer 20 mM Tris-HCl pH 7.4, 150 mM NaCl, 1 mM EDTA, 1% Triton X-100; Protein G agarose overnight at 4 °C; immunoblot. (In general: A western blot detects proteins with antibodies after separation by electrophoresis.)
Another test concerns the target KEAP1-HA-GST (human) (UniProt Q14145). Put plainly: pull-down; GST pull-down (MagneGST Pull-Down System); GST fusion on GST particles, 1 h at 4 °C, His-tagged partner added; eluate analysed by western blot; GST tag alone as control; both purified.

Chains of the proteins cited; added tags and fusions are not shown. Residues count along the entry.
UniProt P46531, residues 19-2555: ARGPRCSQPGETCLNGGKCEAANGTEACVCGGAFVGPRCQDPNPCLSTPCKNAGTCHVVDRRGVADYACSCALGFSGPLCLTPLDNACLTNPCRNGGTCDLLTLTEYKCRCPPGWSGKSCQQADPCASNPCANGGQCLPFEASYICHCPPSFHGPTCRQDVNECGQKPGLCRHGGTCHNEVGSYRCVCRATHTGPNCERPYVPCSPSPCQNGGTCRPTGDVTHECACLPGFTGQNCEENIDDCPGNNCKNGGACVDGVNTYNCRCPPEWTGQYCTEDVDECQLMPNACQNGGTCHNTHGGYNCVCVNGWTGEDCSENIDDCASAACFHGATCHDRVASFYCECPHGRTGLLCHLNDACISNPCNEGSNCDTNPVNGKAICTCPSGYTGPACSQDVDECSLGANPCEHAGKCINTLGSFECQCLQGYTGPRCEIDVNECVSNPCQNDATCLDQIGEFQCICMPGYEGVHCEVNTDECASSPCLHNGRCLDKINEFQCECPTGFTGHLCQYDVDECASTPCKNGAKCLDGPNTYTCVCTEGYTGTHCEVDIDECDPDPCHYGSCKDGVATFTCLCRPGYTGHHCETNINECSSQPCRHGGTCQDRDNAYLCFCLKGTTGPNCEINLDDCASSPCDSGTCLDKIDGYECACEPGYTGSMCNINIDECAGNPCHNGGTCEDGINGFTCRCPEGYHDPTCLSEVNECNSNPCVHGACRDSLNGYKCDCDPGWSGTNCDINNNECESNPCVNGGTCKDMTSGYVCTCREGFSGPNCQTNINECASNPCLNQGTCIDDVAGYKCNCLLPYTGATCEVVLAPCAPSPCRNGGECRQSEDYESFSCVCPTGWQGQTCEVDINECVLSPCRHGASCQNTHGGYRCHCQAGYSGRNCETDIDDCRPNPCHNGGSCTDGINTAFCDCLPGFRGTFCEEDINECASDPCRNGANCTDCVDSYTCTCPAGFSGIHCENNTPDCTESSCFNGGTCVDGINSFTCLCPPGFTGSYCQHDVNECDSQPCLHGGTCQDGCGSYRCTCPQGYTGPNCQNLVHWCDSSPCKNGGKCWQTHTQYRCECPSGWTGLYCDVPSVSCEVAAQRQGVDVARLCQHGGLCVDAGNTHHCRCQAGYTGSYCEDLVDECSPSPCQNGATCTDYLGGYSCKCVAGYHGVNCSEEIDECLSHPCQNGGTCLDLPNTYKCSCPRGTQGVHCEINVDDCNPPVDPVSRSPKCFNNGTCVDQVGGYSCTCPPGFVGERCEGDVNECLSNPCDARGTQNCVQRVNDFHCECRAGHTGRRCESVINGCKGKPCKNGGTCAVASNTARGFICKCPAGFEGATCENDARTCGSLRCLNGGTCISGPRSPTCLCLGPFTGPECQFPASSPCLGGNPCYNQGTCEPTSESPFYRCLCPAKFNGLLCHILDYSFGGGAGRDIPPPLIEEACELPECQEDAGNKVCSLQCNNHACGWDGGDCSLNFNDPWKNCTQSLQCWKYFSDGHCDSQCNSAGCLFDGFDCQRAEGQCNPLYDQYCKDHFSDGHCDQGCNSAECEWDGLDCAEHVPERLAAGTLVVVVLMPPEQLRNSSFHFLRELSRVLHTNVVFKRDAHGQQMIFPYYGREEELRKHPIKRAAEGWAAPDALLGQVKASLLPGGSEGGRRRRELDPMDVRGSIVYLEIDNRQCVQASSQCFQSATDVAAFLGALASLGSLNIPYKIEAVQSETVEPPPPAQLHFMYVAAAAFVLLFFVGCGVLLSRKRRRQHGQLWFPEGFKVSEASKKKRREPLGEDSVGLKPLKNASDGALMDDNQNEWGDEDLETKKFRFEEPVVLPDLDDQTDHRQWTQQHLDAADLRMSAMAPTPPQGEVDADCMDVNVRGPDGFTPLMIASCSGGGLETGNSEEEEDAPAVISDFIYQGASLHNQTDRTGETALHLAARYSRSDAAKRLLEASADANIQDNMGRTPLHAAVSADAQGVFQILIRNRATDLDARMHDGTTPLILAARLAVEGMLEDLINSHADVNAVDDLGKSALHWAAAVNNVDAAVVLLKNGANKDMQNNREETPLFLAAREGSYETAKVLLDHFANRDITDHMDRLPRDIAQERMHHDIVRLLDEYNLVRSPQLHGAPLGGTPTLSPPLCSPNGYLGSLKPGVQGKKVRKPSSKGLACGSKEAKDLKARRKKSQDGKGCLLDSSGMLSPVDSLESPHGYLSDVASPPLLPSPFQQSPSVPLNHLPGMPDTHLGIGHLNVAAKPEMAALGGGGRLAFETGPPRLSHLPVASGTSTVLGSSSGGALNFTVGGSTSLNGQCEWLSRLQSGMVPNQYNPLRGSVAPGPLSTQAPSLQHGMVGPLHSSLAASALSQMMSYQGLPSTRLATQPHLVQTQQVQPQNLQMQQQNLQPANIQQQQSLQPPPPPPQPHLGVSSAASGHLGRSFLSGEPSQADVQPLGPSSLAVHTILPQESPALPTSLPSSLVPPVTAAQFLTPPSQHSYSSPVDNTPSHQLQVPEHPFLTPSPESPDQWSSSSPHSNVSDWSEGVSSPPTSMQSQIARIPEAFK
UniProt Q14145: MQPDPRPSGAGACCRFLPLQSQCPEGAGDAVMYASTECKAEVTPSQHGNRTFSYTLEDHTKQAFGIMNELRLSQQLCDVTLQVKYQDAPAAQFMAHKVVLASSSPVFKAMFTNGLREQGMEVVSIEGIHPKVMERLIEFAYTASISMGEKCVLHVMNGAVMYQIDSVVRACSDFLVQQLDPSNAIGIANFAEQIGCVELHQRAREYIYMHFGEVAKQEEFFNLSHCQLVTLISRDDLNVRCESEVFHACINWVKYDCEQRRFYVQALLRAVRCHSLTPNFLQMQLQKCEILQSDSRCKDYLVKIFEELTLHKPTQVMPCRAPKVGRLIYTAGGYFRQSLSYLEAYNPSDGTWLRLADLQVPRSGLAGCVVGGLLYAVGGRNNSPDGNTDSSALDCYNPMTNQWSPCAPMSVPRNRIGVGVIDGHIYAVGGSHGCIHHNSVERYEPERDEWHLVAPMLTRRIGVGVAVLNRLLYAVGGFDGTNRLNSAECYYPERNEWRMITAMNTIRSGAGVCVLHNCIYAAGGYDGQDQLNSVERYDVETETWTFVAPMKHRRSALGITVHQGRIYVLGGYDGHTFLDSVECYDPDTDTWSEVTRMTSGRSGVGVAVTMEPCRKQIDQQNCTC

Results are given in words; binding and its absence hold for the method and conditions named. For some assays here: Binding seen in cells or lysates may run through a third protein. Some results given as binding are weak or reduced against the parent protein; the word gives no strength.

With “HA-tagged KEAP1 (HA-KEAP1) (from UniProt Q14145 1-624)”, in the test with Flag-NOTCH1 (human), the binding result is “binds”.
“NOTCH1-His (from UniProt P46531 19-2555) (receptor)”: in the test with KEAP1-HA-GST (human), the binding entry is “binds”.
